Reference: publication doi:10.1101/2024.12.31.629942 (bioRxiv, 2024)
Results are given in words; binding and its absence hold for the method and conditions named. For some assays here: Binding seen in cells or lysates may run through a third protein. Some binding calls cover weakened binding; strength is not graded here. For some assays here: Sequences can lack the tags named with a protein.

What was measured:
[1] = biological target: T1, ZapA fused to the T18 domain of adenylate cyclase (E. coli (W3110)) (UniProt P0ADS2); experiment: two-hybrid
T1 sequence: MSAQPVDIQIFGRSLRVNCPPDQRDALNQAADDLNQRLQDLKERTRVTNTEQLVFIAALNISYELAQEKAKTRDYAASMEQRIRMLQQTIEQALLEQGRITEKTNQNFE

[2] = biological target: T2, H-SUMO-ZapA (E. coli (W3110)) (UniProt P0ADS2); experiment: pull-down
T2 sequence: T1 sequence

[3] = biological target: ZapA^C19A,T50C-GFP (E. coli (W3110)) (UniProt P0ADS2); experiment: cross-linking

Row | Substance | binding [1] | also measured
1 | full length FtsZ fused to the T25 domain of adenylate cyclase (from UniProt P0A9A6 1-383) | binds | 
2 | FtsZ^1-316 fused to the T25 domain of adenylate cyclase (from UniProt P0A9A6 1-316) (domain or fragment) | binds | 
3 | FtsZ^1-316 F2A fused to the T25 domain of adenylate cyclase (from UniProt P0A9A6 1-316) (domain or fragment) | no binding | 
4 | FtsZ^317-383 fused to the T25 domain of adenylate cyclase (from UniProt P0A9A6 317-383) (domain or fragment) | no binding | 
5 | FtsZ (wild-type, untagged) (from UniProt P0A9A6 1-383) |  | binding [2]: binds weakly
6 | FtsZ^1-316 L178E fused to the T25 domain of adenylate cyclase (from UniProt P0A9A6 1-316) (domain or fragment) | no binding | 
7 | FtsZ^N73C (from UniProt P0A9A6 1-383) |  | binding [3]: binds
8 | FtsZ^317-370 fused to the T25 domain of adenylate cyclase (from UniProt P0A9A6 317-370) (domain or fragment) | no binding | 
